In paper PMC10163288:
Some of the results follow.

B1: il10ra_site1_sap_27_mot_39a7b8d0c4c3fc04bafbda6ce6101d3a_0001_1_af2_000000014_0001_34_48_H_._HHH_b2_05925_af2_0001_0000200001_0000001_0_0001_af2pred_0001 (protein)
chain: SSSSDDRERLLKRAAEAALEVYERVGDPRLKKVLELLLKLAREAGNEEVVELIEEFLEELSSSSS
B2: il10ra_site1_sap_13_mot_b26a303360aa2756ef5b79665ce52f45_0001_000000179_0001_1_11_H_._HHH_b1_06404_af2_0001_0002300049_0000001_0_0001_af2pred_0001 (protein)
chain: SSSSSEEEEKLKLSLRFLKFAIEQGSERSAEHLIRAIRELVERSNNEEAKERLEELERLLKSSSS
B3: il10ra_site1_sap_14_mot_HHH_b1_05088_af2_000000046_0001_20_36_H_._HHH_b2_02467_af2_0001_0000100003_0000001_0_0001_af2pred_dldesign_0_af2pred (protein)
chain: DVEAALAALRARLPPELRGRLDRVLALAEEKGYPRLIVVQAFEQLYAQTGDPALALENLEWHLSA
B4: il10ra_site1_normal_mot_HHH_b2_00984_000000042_0001_1_20_H_._HHH_b2_04018_0001_0000400032_0000001_0 (protein)
chain: SSSSDEVEERVEELLEEAKELFERGNPEEAAELLQEATQVAIENNNAELLQLVWKVIKELASSSS
B5: il10ra_site1_normal_mot_HHH_b2_07731_000000003_0001_42_56_H_._HHH_b2_03545_0001_0000300038_0000001_0 (protein)
chain: SSSSDEVQEEVERLLEEARELHEKGNPEEAYKLIREAAEIASENNDPEAQRLVVELSHKLFSSSS
B6: il10ra_site1_normal_mot_HHH_b2_00612_000000251_0001_1_14_H_._HHH_b1_05183_af2_0001_0000400024_0000001_0_af2pred_0001 (protein)
chain: SSSNDAAELIQEVAELVRRILEDPEHKEELEERIEELIEELREAGNRLAVLAAEYALKRVGSSSS
B7: il10ra_site1_sap_19_mot_HHH_b1_07835_af2_000000063_0001_1_16_H_._HHH_b1_04396_af2_0001_0000200002_0000001_0_0001 (protein)
chain: SSSSSDEELEERIKELLEELKEITDPKRFLKLMHEILRLIFRLGDWELLRELWEIAREWGSSSSS
B8: il10ra_site1_sap_21_mot_HHH_b1_02665_000000293_0001_1_18_H_._HHH_b1_06561_af2_0001_0000400012_0000002_0_0001_af2pred_0001 (protein)
chain: SSSSSSDEYREEVEELLEEAEENPEHAAELIHEAAKLAVEGQDPEALRLVIEFLRRVISSSSSSS
B9: il10ra_site1_normal_mot_HHH_b2_00033_000000036_0001_41_54_H_._HHH_b1_07799_af2_0001_0000500020_0000001_0 (protein)
chain: SSSSDEEAERLFQLVWELNKRGDEEELEELLKEIRELEKEDPRLRKSLRQAVFAAEQFLRSSSSS
B10: il10ra_site1_normal_mot_HHH_b2_00134_af2_000000008_0001_38_52_H_._189ca46c2b6f258b25d663752d8ad4bb_0001_1_af2_0001_0000100002_0000002_0 (protein)
chain: SEEQEELLQEILGDPELARLVLKSFERQEKQIGDPRQALRAVLAFLRLAGLVSPEQLRLIEEILR
B11: il10ra_site1_sap_12_mot_HHH_b1_03763_000000278_0001_22_38_H_._HHH_b2_04319_af2_0001_0000100007_0000001_0_0001 (protein)
chain: SSSSDERREIYELLREAVELDHDGNPEEAEKVLEEAERLAEEAGDDVLLVQVRYLLELLNSSSSS
B12: il10ra_site1_sap_14_mot_HHH_b1_06789_af2_000000041_0001_1_20_H_._HHH_b2_00587_0001_0000300020_0000001_0_0001 (protein)
chain: SSSSSSSKEEVEEILEEAEEIEDPEERIKVLLEALRVAWRHNDEEALRLVWEVVKKLGSSSSSSS
B13: il10ra_site1_normal_mot_HHH_b2_08186_000000021_0001_43_56_H_._HHH_b2_07548_0001_0000400022_0000001_1 (protein)
chain: SSSSSDEEEEEVEELLEEAKHIEDREKVRRLVMEAARIAYRASDPELLQLVWRVLKELTSSSSSS
B14: il10ra_site1_normal_mot_HHH_b2_04912_000000028_0001_1_20_H_._HHH_b1_06862_af2_0001_0000200023_0000001_0 (protein)
chain: SSSSDENREVLELSIEAFRLALRGNPEEAEELLEKALKLAEEAGNERIARQIRQLLQAINSSSSS
B15: il10ra_site1_normal_mot_HHH_b1_01821_000000158_0001_23_39_H_._HHH_b2_02225_0001_0000400032_0000001_0 (protein)
chain: SSSSSSSAEERVRELIEELEEVSEEERKQLLFEAVRFALEANNAELLQELWELFRKLASSSSSSS
B16: il10ra_site1_sap_11_mot_HHH_b2_06142_af2_000000101_0001_1_18_H_._HHH_b1_08444_af2_0001_0000500022_0000002_0_0001 (protein)
chain: SSSSSDEEELREEVERLLEEAEHIPDHREVAKLLQRATRLAIQLGDEELLQLVWRVVKKLSSSSS
B17: il10ra_site1_normal_mot_HHH_b2_00440_af2_000000075_0001_42_56_H_._HHH_b1_02927_af2_0001_0000100006_0000002_0_af2pred_0001 (protein)
chain: SSSSSEEEEEVRELLRQAEEALENNDVELLYRLLRRAVEIAAQINNQELLKLVLRVSREAISSSS
B18: il10ra_site1_sap_15_mot_HHH_b2_01447_af2_000000258_0001_1_20_H_._HHH_b2_06257_0001_0000200016_0000001_0_0001 (protein)
chain: SSSSNDEALELSQKAFHAALRGDFEQAEELLEEALELAREAGNEELAKQIERLLETVRRQGSSSS
B19: il10ra_site1_normal_mot_HHH_b1_05937_af2_000000262_0001_20_37_H_._HHH_b1_00814_af2_0001_0000200016_0000001_0 (protein)
chain: SSSSDEEEEELRKLLEELEKLIEEGDREKVLRLAIRILRLAFRLSDEEVVQEVWRLALESASSSS
B20: il10ra_site1_sap_23_mot_9c3e5e2d2b9ffb70dc788f52fbfab6d5_0001_1_000000198_0001_1_14_H_._HHH_b1_04873_0001_0000200016_0000002_0_0001 (protein)
chain: SSSSSSDIAELAQEALHRAIQLGDEEVFQAIWELAKKYAREGDPRYREELEELLEELRSSSSSSS
B21: il10ra_site1_normal_mot_HHH_b1_03094_000000294_0001_1_20_H_._HHH_b1_05478_af2_0001_0000100005_0000001_0 (protein)
chain: SSSSDEENQEALELSLEALRLALRGDPEKAREVLEEAFELAERANNERLLRIIEELLEALHSSSS
B22: il10ra_site1_normal_mot_8756ee2cf497b5429c717dfc0c0bcfd6_0001_000000186_0001_1_13_H_._HHH_b2_06136_af2_0001_0000400011_0000001_0_af2pred_0001 (protein)
chain: SSSSSSRLFELLREIAELLHEGNPEEAEELIEEAEELAKERNDDVARAQLEFLRKIVERLSSSSS
B23: il10ra_site1_normal_mot_8756ee2cf497b5429c717dfc0c0bcfd6_0001_000000186_0001_1_13_H_._HHH_b1_00839_0001_0000300027_0000001_1 (protein)
chain: SSSSDEEFKLAEEVIREALQLYEEGNEEEAEKLVEEAIRLAEELNNDVILFQLRYLLRHLESSSS
B24: il10ra_site1_sap_22_mot_HHH_b2_03425_000000200_0001_22_39_H_._HHH_b2_06606_0001_0000100007_0000002_0_0001_af2pred_0001 (protein)
chain: SSSSSEEEEEARELAERIKELIKEGDEEEVQKLFHELWELAVKYNDKEAAKLLIELLELRSSSSS

Target: il10ra, Q13651
Test: yeast display titration

Apparent Kd, inactive:
B1 no binding seen
B2 no binding seen
B3 no binding seen
B4 no binding seen
B5 no binding seen
B6 no binding seen
B7 no binding seen
B8 no binding seen
B9 no binding seen
B10 no binding seen
B11 no binding seen
B12 no binding seen
B13 no binding seen
B14 no binding seen
B15 no binding seen
B16 no binding seen
B17 no binding seen
B18 no binding seen
B19 no binding seen
B20 no binding seen
B21 no binding seen
B22 no binding seen
B23 no binding seen
B24 no binding seen

No new results follow: entries from further up.
Apparent Kd, inactive:
B20 no binding seen
B21 no binding seen
